Assay results reported in patent publication US3958011A, “Compositions of tri-n-propylacetic acid and salts thereof and treatment of neurological disorders with such compositions” (priority 1972, dated 1976).

Test: Acute toxicity (LD50), technique of Karber and Behrens
Conditions: mouse, in vivo, ip
Procedure: The LD50 was determined on the mouse by intraperitonel route using the technique of KARBER and BEHRENS.

## CN1C(=O)CN=C(c2ccccc2)c2cc(Cl)ccc21 [diazepam, reference compound]
  LD50: 55 mg/kg
